According to PubChem BioAssay AID504444 (National Center for Advancing Translational Sciences (NCATS), 2011):
In all, about 360,000 compounds went through this assay and about 7,500 (2.1%) were called active. The inconclusive results got no clear call from the source; some entries with a clear call stand among them for comparison. Calls follow the shape of the dose curve; as a rule, active = well fitted inhibition curve with a large enough effect; inconclusive = small, poorly fitted or top-dose-only effect, or effect the other way; inactive = flat fitted curve, though single readings scatter. A potency beside an inconclusive call is a rough fit, not a confirmed value.

experiment: Nrf2 qHTS screen for inhibitors; settings: A549 ARE-Fluc reporter, luciferase luminescence, 18-24 h; series mostly up to 46 µM; also: nearly all actives have a fitted effect of over 60% in size
Summary of the method: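 Cells were seeded and rested 2 h, then exposed to compounds for 18-24 h. CellTiter-Fluor was read first as a viability measure. BugLite was added 15 min before the final luminescent read of ARE-luciferase activity in A549 cells.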
Potency is read from the fitted curve at half-maximal effect.

Q: Which Potency does the source give for NC(=O)c1c(NC(=O)Cn2nc(C(=O)O)c3ccccc3c2=O)sc2c1CCCC2 here?
A: inconclusive: 29.1 µM [falling, single point]

Q: With Cc1nnc(NC(=O)CSc2nc3c(c(=O)n2C)SC(C)C3)s1 (stereo unspecified) as the compound, how does the Potency read?
A: inconclusive: 13 µM [falling, partial curve]

Q: Which Potency does the source give for CCC(=O)N1CCc2cc(S(=O)(=O)Nc3cc(C)ccc3OC)ccc21 here?
A: inconclusive: 25.9 µM [falling, single point]

Q: For NC(=O)c1cc([N+](=O)[O-])ccc1NCCc1ccccc1, which Potency is on record?
A: inconclusive: 25.9 µM [falling, single point]

Q: For Cc1nn(-c2cccc(C(F)(F)F)c2)c(Cl)c1/C=N/Nc1cccc(C(=O)O)c1, which Potency is on record?
A: inconclusive: 13 µM [activator, partial curve, poor fit]

Q: Which Potency does the source give for COCCn1c(C)cc(C(=O)COC(=O)c2ccc3ncsc3c2)c1C here?
A: inconclusive: 16.4 µM [activator, partial curve]

Q: For CC(C)C(=O)Nc1ccc2nc(SCC(=O)N3CCc4ccccc43)sc2c1, which Potency is on record?
A: inconclusive: 20.6 µM [falling, single point]

Q: For COc1ccccc1CC(=O)Nc1ccc2nc(Nc3cccc(Cl)c3)cc(C)c2c1, which Potency is on record?
A: inconclusive: 25.9 µM [falling, partial curve]

Q: With COC(=O)c1ccc(C)c(NC(=O)CCNC(=O)c2ccc([N+](=O)[O-])cc2)c1 as the compound, how does the Potency read?
A: inactive

Q: With N#CC1=C(SCC(=O)Nc2ccc(C(=O)O)cc2)NC(=O)CC1c1ccco1 (stereo unspecified) as the compound, how does the Potency read?
A: inconclusive: 20.6 µM [falling, partial curve, poor fit]

Q: Which Potency does the source give for COc1cc(S(=O)(=O)Nc2ccc(C)cc2)ccc1N=Cc1c(C)[nH]n(-c2ccccc2)c1=O here?
A: inconclusive: 20.6 µM [falling, single point]

Q: For COc1cc2c(C#N)c(N3CCOCC3)nc(N)c2c(N)n1, which Potency is on record?
A: inconclusive: 23.1 µM [falling, single point]

Q: With Cc1c(NS(=O)(=O)c2ccc(Cl)c(C(=O)OC(C)C(=O)N3CCOCC3)c2)c(=O)n(-c2ccccc2)n1C (stereo unspecified) as the compound, how does the Potency read?
A: inconclusive: 29.1 µM [activator, single point]

Q: Which Potency does the source give for O=C(Nc1ccc(Cl)c(S(=O)(=O)N2CCOCC2)c1)c1ccc(Cl)nc1 here?
A: inconclusive: 14.6 µM [falling, partial curve]

Q: For COc1ccc2[nH]c(C)c(CCN(Cc3cccs3)C(=S)Nc3cccc(F)c3)c2c1, which Potency is on record?
A: inconclusive: 29.1 µM [falling, single point]

Q: For COc1ccc(-c2coc3cc(O)ccc3c2=O)cc1, which Potency is on record?
A: inconclusive: 16.4 µM [activator, partial curve, poor fit]

Q: With COc1ccccc1C(=O)Nc1ccc(C(=O)N2CCCCC2)cc1 as the compound, how does the Potency read?
A: inconclusive: 2.31 µM [falling, partial curve, poor fit]

Q: For Cc1ccc(OCCn2c(-c3ccc(Br)cc3)nc3ccccc3c2=O)cc1C, which Potency is on record?
A: inactive

Q: With O=C(CCNC(=O)c1ccccc1Cl)Nc1cccc(C(F)(F)F)c1 as the compound, how does the Potency read?
A: inconclusive: 14.6 µM [falling, partial curve]

Q: For CCCCN(CC)CCCNC(=O)C1CCCN(c2ncnc3c2nc2n3CCCCC2)C1 (stereo unspecified), which Potency is on record?
A: inconclusive: 13 µM [activator, partial curve]

Q: With COc1ccc(NC(=O)Cn2c(=O)n(Cc3ccccc3Cl)c(=O)c3cc(OC)c(OC)cc32)cc1OC as the compound, how does the Potency read?
A: inactive

Q: For COc1ccc(-c2onc(C)c2C)cc1S(=O)(=O)N1CCN(c2ccc(Cl)cc2)CC1, which Potency is on record?
A: inconclusive: 1.64 µM [falling, full curve, poor fit]

Q: For Cc1cccc(NC(=O)CCCN2C(=O)c3ccccc3C2=O)n1, which Potency is on record?
A: inconclusive: 8.2 µM [falling, partial curve, poor fit]

Q: With COc1ccc(-c2cc(C(=O)Nc3cc(C)on3)no2)cc1OC as the compound, how does the Potency read?
A: inactive

Q: With CCN(c1ccc(F)cc1)S(=O)(=O)c1ccc2[nH]cc(C(=O)NCCCN3CCOCC3)c(=O)c2c1 as the compound, how does the Potency read?
A: inactive

Q: Which Potency does the source give for N#Cc1ccc(OCC(=O)N2CCN(S(=O)(=O)c3cccc(Cl)c3)CC2)cc1 here?
A: inconclusive: 14.6 µM [falling, partial curve, poor fit]

Q: For O=C(CCN1CCN(c2ccccc2)CC1)Nc1ccccc1, which Potency is on record?
A: inconclusive: 6.51 µM [falling, single point]

Q: Which Potency does the source give for Cn1c(N)c(C(=O)COC(=O)Cc2cccc(C(F)(F)F)c2)c(=O)n(C)c1=O here?
A: inconclusive: 0.13 µM [falling, full curve, poor fit]

Q: With c1ccc(Cc2nc3ccccc3s2)cc1 as the compound, how does the Potency read?
A: inconclusive: 29.1 µM [activator, single point]

Q: With CCOC(=O)c1c(-c2ccccc2)nc2ccc(C)cn12 as the compound, how does the Potency read?
A: inconclusive: 14.6 µM [activator, partial curve]

Q: With O=C(Nc1ncc(Cc2ccccc2Cl)s1)C1CCCO1 (stereo unspecified) as the compound, how does the Potency read?
A: inconclusive: 0.731 µM [activator, full curve]

Q: For COc1ccc(CC(=O)Nc2ccc(S(=O)(=O)N3CCCC3)cc2)cc1OC, which Potency is on record?
A: inconclusive: 5.8 µM [falling, partial curve, poor fit]

Q: Which Potency does the source give for Cc1cc(C)nc(SCC(=O)Nc2ccnc3ccccc23)n1 here?
A: active: 1.16 µM

Q: With COc1ccc(C(=O)NNC(=O)CCc2nc3ccccc3c(=O)[nH]2)cc1 as the compound, how does the Potency read?
A: inconclusive: 5.8 µM [activator, single point]

Q: For Cc1ccc(O)c(NC(=O)c2cc(-c3ccccc3Cl)on2)c1, which Potency is on record?
A: inactive

Q: Which Potency does the source give for CN(Cc1cc(=O)n2ccsc2n1)Cc1nc2ccccc2c(=O)[nH]1 here?
A: inconclusive: 5.17 µM [activator, single point]

Q: Which Potency does the source give for CC(=O)c1[nH]c(C)c(C(=O)N2CCCC(Nc3cccc(F)c3)C2)c1C (stereo unspecified) here?
A: inactive

Q: With Cc1c(C(=O)Nc2ccccn2)oc2ccc(Br)cc12 as the compound, how does the Potency read?
A: inconclusive: 3.26 µM [activator, partial curve]

Q: Which Potency does the source give for NNC(=O)c1sc2nc(N3CCOCC3)c3c(c2c1N)CCCC3 here?
A: inconclusive: 8.2 µM [falling, partial curve, poor fit]

Q: For CCN(CCCNC(=O)c1cc(Nc2ccc(OC)cc2OC)nc2ccccc12)c1cccc(C)c1, which Potency is on record?
A: inactive

Q: With Cc1cc2nc(SCCOC(=O)Nc3ccccc3)nc(C)c2cc1C as the compound, how does the Potency read?
A: active: 20.6 µM
